For one data set, the system named is Mouse liver AML12 cells. Put plainly: Up-taking of fluorescence labeled LDL by liver cells. The class given is cell-based. The note with it: 10 μM and 20 μM, 24 hours, compared between groups. The method, then:
Cells were incubated with florescence labeled LDL to study the up-taking and metabolite of LDL cholesterol by the cells. LDL specific antibody were used to study LDL receptors expressed by the cells. […] After 24 hours of treatments, the cells were washed and fixed with paraformaldehyde. Cells were then incubated with anti-LDLR primary antibody with 1:200 dilution at room temperature for 4 hours. After washed, the second antibody Alexa Fluor 488 with 1:200 dilutions was added and incubated at room temperature for 2 hours. The cells were washed again before examined under fluorescent microscope. The fluorescence anti-body bound LDL receptors in green and either bound or internalized fluoresces labeled LDL in red were examined separately or after merging. Fluorescent microscope equipped with a digital camera (Axio Observer 7). Computer software was used to quantify the intensity of fluorescence, which is correlated with the amount of LDL and LDL receptors bounded to antibodies.

Data set [1] relates to Pulmonary artery smooth muscle cell (PASMC).
The next data set has as its system hyperlipidemia rabbits. The note with it: rabbit, in vivo.

In the case of `CC(C)c1c(C(=O)Nc2ccccc2)c(-c2ccccc2)c(-c2ccc(F)cc2)n1CC[C@@H](O)C[C@@H](O)CC(=O)O` [Statin, Atorvastatin], in the data set with Mouse liver AML12 cells, the “Bound and intracellular fluorescence labeled LDL” value is reported as “more than LDL alone group but less than R-bambuterol treated groups”. The “Toxicity to the viability of PASMC, in words” value in data set [1] was “dose-dependent inhibition of cell viability”. For the same molecule, the “Toxicity effects by pathological examining” value in the data set with hyperlipidemia rabbits is “significant”.

For the origin of these results see patent publication US20210290580A1, “New use of carbamate ß phenylethanolamine analogues for enhancing intracellular clearance of LDL cholesterol and for combining therapy with statins to enhance the efficacy and reduce adverse effects” (priority 2018, published 2021).
